{
  "source": "patent US20260144798A1",
  "about": "“Disruption of Vascular Smooth Muscle Relaxation by Carfilzomib May be the Primary Reason for CFZ-Induced Vascular Dysfunction” (AMGEN INC., priority 2019, published 2026)",
  "key": {"[1]": {"system": "rat aortic rings", "experiment": "Acetylcholine-induced relaxation of phenylephrine-precontracted rat aortic rings", "conditions": "30 nM pre-treatment 10 minutes before CFZ (FIG. 5B)"}, "[2]": {"system": "rat aortic rings", "experiment": "Sodium nitroprusside-induced relaxation of phenylephrine-precontracted rat aortic rings", "conditions": "30 nM pre-treatment 10 minutes before CFZ (FIG. 5A)"}, "[3]": {"system": "VASP", "experiment": "Western blot of p-VASP (S239) in rat thoracic aortic tissue", "conditions": "pre-treatment with tadalafil, CFZ plus tadalafil (FIG. 6A)", "experimental": "Each cell pellet was lysed in 50 to 70 μL RIPA buffer (Cell Signaling Technology, Danvers, MA) with the Halt™ protease and phosphatase inhibitor cocktail (Thermo Fisher Scientific). Lysates were quantitated and loaded onto the Li-COR Western blot system. Antibodies specific to phosphorylated eNOS and eNOS from Thermo Fisher Scientific, anti-Guanylyl Cyclase β1 (ER-19) (Sigma-Aldrich), and β-Actin (Sigma-Aldrich) were diluted 1:1000 for Western blot. Antibodies specific to p-VASP, VASP, and GADPH-HRP were purchased from Cell Signaling Technology. […] The number of measurements is indicated by “n.” #denotes P<0.05 (red vs. blue)."}, "[4]": {"system": "VASP", "experiment": "p-VASP ELISA in human aortic smooth muscle cells", "assay_type": "cell-based", "conditions": "10-minute pre-treatment with tadalafil, increasing SNP (FIG. 6B)"}},
  "note": "For at least one compound, name, drawing or mass did not settle the structure.",
  "data": [
    {"smiles": "CN1CC(=O)N2[C@H](c3ccc4c(c3)OCO4)c3[nH]c4ccccc4c3C[C@@H]2C1=O", "note": "[tadalafil]", "values": [
      {"measurement": "reversal of CFZ effect on VSM relaxation in the presence of ACh", "setting": "[1]", "value": "reversed the CFZ effect on VSM relaxation"},
      {"measurement": "reversal of CFZ effect on VSM relaxation in the presence of SNP", "setting": "[2]", "value": "reversed the CFZ effect on VSM relaxation"},
      {"measurement": "rescue of CFZ-induced reduction of VASP phosphorylation", "setting": "[3]", "value": "rescued the CFZ effect by overcompensating for reduced phosphorylation level of VASP"},
      {"measurement": "rescue of CFZ-induced reduction of VASP phosphorylation (ELISA)", "setting": "[4]", "value": "rescued the CFZ effect by overcompensating for reduced phosphorylation level of VASP"}
    ]}
  ]
}
